In PMC4650436:
Results are given in words; binding and its absence hold for the method and conditions named. Binding seen in cells or lysates may run through a third protein. Some results given as binding are weak or reduced against the parent protein; the word gives no strength.

The chains behind the UniProt entries cited, without tags or fusion partners.
UniProt P27008: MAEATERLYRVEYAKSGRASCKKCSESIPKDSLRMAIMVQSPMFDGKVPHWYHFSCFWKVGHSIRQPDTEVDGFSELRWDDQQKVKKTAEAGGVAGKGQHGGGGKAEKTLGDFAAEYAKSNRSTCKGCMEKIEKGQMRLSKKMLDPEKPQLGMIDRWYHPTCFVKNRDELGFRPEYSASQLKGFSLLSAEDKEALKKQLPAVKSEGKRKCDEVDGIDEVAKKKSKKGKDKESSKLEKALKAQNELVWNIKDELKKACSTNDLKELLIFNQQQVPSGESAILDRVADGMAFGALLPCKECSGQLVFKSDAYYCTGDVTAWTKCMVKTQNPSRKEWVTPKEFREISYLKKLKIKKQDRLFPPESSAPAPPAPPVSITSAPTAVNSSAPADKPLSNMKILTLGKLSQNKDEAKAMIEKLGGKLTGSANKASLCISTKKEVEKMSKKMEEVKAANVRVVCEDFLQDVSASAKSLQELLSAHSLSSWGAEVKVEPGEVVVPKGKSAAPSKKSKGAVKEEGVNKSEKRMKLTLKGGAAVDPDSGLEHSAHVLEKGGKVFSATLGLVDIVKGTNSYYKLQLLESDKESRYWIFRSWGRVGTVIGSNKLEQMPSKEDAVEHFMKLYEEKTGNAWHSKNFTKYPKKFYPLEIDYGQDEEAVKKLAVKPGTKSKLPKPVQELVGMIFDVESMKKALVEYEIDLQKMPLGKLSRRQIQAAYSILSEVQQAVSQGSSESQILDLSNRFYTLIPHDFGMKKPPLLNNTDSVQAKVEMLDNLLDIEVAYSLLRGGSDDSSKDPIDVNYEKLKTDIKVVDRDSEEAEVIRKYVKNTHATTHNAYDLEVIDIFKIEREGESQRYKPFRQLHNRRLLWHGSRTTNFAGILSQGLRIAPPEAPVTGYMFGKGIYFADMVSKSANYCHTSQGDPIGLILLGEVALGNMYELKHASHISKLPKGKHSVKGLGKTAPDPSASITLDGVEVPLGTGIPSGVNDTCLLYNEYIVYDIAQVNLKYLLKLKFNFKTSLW

Target: T1, annexin A6 (Anxa6), endogenous in H9c2 cardiomyocytes (rat (endogenous in H9c2)) (UniProt P48037)
T1 sequence: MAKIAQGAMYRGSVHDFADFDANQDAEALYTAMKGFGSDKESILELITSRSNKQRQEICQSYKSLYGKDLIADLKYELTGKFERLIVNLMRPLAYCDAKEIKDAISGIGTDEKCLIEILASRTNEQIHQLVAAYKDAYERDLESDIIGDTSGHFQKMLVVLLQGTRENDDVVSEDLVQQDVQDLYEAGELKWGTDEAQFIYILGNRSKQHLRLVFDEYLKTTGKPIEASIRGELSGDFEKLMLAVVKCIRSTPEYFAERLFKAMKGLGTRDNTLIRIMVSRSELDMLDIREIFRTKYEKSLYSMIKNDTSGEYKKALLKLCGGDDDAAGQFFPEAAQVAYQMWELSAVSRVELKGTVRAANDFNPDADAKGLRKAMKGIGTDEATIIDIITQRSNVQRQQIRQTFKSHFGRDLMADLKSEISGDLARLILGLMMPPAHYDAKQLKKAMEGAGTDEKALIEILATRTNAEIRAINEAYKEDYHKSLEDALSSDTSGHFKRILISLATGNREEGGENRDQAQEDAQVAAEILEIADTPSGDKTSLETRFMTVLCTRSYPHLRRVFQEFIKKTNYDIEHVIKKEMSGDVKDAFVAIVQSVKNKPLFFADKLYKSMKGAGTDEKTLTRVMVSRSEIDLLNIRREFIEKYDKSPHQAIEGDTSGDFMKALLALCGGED
Test: co-IP; whole-cell lysates of wild-type H9c2 cardiomyocytes, without or with PE (also pretreated with ionomycin); antibodies coupled onto amine-reactive resin, 1 mg lysate, overnight at 4 °C; immunoblot of the immunoprecipitate

- binding: binds
Substance: poly-(ADP-ribose) polymerase 1 (Parp1), full length, endogenous in H9c2 cardiomyocytes (from UniProt P27008 1-1014)
